Assay results from publication PMC12586852.
Results are given in words; binding and its absence hold for the method and conditions named. Binding seen in cells or lysates may run through a third protein. Some binding calls cover weakened binding; strength is not graded here.

Chains of the proteins cited; added tags and fusions are not shown.
UniProt P78527: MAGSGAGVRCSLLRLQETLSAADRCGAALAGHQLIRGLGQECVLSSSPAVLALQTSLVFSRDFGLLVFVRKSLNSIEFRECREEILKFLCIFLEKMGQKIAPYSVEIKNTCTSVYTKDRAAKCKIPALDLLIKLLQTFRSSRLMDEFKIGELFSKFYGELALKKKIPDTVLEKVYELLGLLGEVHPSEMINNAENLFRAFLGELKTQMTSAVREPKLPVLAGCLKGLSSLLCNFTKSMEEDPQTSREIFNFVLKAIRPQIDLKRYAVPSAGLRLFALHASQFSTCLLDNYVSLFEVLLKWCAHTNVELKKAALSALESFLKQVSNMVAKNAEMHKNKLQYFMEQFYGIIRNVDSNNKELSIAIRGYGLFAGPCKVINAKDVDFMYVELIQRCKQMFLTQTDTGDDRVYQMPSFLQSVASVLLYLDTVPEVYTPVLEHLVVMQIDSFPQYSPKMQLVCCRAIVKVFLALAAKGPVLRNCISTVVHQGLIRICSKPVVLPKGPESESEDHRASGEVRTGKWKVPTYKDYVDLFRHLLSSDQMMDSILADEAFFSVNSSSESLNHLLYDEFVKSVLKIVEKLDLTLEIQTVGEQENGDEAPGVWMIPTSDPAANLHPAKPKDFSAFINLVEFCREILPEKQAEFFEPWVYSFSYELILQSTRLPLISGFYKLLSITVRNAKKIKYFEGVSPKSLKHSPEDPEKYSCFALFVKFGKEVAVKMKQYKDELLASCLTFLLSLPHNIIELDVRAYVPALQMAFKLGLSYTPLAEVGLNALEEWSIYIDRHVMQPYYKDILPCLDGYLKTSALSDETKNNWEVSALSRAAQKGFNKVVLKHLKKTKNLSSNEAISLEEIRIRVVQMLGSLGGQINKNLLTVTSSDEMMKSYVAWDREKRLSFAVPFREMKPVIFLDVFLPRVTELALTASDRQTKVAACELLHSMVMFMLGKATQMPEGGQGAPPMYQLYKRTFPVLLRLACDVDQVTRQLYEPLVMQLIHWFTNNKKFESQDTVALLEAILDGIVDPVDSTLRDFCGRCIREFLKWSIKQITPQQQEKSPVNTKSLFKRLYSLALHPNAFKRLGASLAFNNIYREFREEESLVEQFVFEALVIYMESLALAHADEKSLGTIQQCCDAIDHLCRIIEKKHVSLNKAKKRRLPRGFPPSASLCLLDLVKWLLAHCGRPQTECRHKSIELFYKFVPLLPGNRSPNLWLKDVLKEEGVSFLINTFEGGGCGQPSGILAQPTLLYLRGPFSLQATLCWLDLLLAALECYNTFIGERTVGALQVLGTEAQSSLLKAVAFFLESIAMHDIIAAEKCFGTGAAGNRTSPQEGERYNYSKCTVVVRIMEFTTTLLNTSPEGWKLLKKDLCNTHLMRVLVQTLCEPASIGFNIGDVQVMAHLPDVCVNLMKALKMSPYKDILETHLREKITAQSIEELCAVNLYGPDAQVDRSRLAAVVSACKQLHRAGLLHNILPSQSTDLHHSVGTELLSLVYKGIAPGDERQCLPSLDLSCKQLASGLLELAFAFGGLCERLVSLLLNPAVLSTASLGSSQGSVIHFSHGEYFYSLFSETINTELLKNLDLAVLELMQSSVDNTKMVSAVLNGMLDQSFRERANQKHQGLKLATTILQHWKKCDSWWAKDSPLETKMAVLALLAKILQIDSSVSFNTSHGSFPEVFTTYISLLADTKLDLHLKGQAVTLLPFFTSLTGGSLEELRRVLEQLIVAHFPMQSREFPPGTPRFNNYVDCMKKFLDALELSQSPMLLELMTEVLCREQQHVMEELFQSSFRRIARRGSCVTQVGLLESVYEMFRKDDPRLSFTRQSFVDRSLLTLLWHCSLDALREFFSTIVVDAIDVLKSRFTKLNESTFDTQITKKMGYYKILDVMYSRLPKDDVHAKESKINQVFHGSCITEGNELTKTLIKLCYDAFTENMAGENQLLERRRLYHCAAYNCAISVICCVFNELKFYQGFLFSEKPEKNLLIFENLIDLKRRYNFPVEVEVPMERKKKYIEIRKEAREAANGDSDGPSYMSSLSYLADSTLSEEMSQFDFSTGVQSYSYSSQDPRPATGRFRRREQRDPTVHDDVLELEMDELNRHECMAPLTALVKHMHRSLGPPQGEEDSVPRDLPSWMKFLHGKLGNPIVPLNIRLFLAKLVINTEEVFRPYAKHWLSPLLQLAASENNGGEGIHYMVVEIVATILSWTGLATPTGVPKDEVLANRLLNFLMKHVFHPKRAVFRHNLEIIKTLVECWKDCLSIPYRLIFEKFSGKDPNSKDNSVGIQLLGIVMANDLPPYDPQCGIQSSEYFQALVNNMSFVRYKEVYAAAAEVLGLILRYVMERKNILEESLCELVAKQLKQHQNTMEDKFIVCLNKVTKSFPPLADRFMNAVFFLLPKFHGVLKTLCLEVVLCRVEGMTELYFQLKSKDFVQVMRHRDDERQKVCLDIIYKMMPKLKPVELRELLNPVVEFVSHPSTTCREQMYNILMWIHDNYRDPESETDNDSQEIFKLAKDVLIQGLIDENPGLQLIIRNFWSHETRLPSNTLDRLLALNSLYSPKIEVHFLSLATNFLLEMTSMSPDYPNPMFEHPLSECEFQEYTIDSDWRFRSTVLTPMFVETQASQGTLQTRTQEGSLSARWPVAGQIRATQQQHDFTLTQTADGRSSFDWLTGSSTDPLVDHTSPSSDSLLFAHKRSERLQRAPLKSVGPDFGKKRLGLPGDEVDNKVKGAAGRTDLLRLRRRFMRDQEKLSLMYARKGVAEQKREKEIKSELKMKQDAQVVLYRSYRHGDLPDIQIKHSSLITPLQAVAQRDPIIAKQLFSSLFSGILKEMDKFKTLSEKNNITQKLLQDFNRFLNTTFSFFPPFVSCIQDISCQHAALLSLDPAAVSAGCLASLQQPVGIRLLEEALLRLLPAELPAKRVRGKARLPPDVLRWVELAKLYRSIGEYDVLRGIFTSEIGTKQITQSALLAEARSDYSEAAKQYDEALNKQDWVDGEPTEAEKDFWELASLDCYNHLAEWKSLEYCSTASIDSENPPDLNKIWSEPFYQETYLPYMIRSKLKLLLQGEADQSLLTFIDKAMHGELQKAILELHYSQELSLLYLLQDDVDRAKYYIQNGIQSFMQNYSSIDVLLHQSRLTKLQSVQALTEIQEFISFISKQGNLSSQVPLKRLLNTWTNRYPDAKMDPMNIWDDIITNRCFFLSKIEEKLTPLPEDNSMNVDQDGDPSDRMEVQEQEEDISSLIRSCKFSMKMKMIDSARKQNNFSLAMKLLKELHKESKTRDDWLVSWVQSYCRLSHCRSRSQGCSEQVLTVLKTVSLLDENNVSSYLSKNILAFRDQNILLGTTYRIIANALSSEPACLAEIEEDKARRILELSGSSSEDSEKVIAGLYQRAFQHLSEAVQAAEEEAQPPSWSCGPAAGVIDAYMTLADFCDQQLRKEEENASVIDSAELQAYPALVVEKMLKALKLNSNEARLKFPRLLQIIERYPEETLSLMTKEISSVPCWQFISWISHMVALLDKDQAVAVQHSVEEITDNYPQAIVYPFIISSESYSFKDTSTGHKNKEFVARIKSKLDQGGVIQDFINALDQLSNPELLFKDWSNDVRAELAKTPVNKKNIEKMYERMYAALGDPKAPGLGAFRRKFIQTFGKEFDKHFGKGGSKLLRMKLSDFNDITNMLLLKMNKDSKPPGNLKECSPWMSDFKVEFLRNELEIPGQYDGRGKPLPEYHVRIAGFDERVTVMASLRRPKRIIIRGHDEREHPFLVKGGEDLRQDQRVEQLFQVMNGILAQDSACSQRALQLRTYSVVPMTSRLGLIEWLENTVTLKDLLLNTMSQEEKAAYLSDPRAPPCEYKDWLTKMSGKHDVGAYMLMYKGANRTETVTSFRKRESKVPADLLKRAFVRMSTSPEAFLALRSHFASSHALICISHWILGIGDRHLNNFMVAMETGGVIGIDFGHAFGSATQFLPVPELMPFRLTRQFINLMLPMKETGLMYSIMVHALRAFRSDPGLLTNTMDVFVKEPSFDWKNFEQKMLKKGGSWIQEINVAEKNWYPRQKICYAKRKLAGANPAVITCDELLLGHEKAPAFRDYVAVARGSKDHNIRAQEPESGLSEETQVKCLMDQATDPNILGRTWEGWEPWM

Target: insulin-like growth factor-binding protein 3 (human (endogenous in human BCa cells)) (UniProt P17936)
Experiment: co-IP; Co-IP Kit (Beyotime); lysates from 1 × 10^7 cells incubated overnight at 4 °C with antibody-conjugated protein A/G magnetic beads; BCa cells cisplatin-treated (2 μM) or hypoxic (1% O2) against untreated; precipitating antibody not stated

binding | Substance
binds | DNA-dependent protein kinase catalytic subunit (from UniProt P78527 1-4128) (enzyme)
binds | epidermal growth factor receptor (from UniProt P00533 25-1210)
